PubChem BioAssay AID652243 – Drosophila RNAi Screening Center | 2013
The deposit covers about 24,000 reagents; shown is a random part of those with a known target gene and a result. Of all reagents, 246 (1%) got an active call. 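Plates not normalised; calls are printed but the firefly/Renilla ratio behind them is not deposited; fold cut for lowering reported inconsistently.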 Raw values are not corrected between plates. Names joined by + are all predicted targets of the reagent. Reagent sequences are not shown. The record does not give: the amount of reagent.

Purpose: 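Fly regulators of androgen-dependent reporter output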 (primary screen)
System: Drosophila S2R+ cells
Knock-down reagent: long dsRNA against Drosophila genes
Timing: 72 h (48 h, then 24 h hormone)
Treatment: synthetic androgen R1881 at 10 nM for 24 h
Detection: 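Firefly light from an androgen-responsive reporter and Renilla control light per well, raw and unnormalised, for each of two replicates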
Scale: firefly reporter light: higher = more light from androgen-responsive reporter; Renilla control light: higher = more constitutive control signal (cell number, transfection)
Hit rule: 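Across duplicate plates, a knock-down whose log firefly/Renilla ratio shifted a set fold down or up from the GFP/LacZ control mean was a hit; the downward cut appears as both 1.5 and 3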
Calls: active = hit: reporter lowered or raised; inactive = no hit

| gene | DRSC id | firefly reporter light, replicate 1 | firefly reporter light, replicate 2 | Renilla control light, replicate 1 | Renilla control light, replicate 2 | Outcome |
| --- | --- | --- | --- | --- | --- | --- |
| Rx (Retinal Homeobox) | DRSC03837 | 2.64e5 | 2.96e5 | 7.39e5 | 6.49e5 | inactive |
| Rx (Retinal Homeobox) | DRSC04652 | 3.72e5 | 4.25e5 | 2.81e6 | 1.86e6 | inactive |
| Rx (Retinal Homeobox) | DRSC25248 | 2.43e5 | 2.44e5 | 4.64e5 | 2.80e5 | inactive |
| Gr98b (Gustatory receptor 98b) | DRSC21675 | 6.31e5 | 6.92e5 | 1.75e6 | 1.63e6 | inactive |
| b6 | DRSC18740 | 3.88e5 | 4.27e5 | 3.75e6 | 3.28e6 | inactive |
| b6 | DRSC24064 | 8.47e5 | 8.03e5 | 1.34e6 | 1.35e6 | inactive |
| Der-1 (Derlin-1) | DRSC00301 | 9.40e5 | 1.07e6 | 2.52e6 | 2.36e6 | inactive |
| CG7556 | DRSC20052 | 83181 | 2.00e5 | 7.36e5 | 7.63e5 | inactive |
| CG7556 | DRSC26701 | 2.73e5 | 2.16e5 | 5.79e5 | 4.30e5 | inactive |
| drd (drop dead) | DRSC19343 | 6.57e5 | 5.53e5 | 3.20e6 | 3.32e6 | inactive |
| drd (drop dead) | DRSC21466 | 6.97e5 | 6.71e5 | 2.60e6 | 2.16e6 | inactive |
| drd (drop dead) | DRSC26473 | 82040 | 90665 | 1.11e5 | 1.50e5 | inactive |
| CG14325 | DRSC14804 | 88985 | 1.14e5 | 1.01e6 | 1.37e6 | inactive |
| Recs1 | DRSC16545 | 1.94e5 | 1.99e5 | 2.73e6 | 2.42e6 | inactive |
| FLASH (FLICE-associated huge protein) | DRSC06872 | 6.66e5 | 7.08e5 | 2.32e6 | 3.96e6 | inactive |
| FLASH (FLICE-associated huge protein) | DRSC26747 | 9.27e5 | 5.34e5 | 1.08e6 | 4.50e5 | inactive |
| Cyp6w1 (Cytochrome P450 6w1) | DRSC04909 | 9.94e5 | 8.60e5 | 1.58e6 | 1.52e6 | inactive |
| Fntb (Farnesyl transferase beta subunit) | DRSC15244 | 59073 | 52104 | 3.98e5 | 4.11e5 | inactive |
| Fntb (Farnesyl transferase beta subunit) | DRSC28158 | 9.33e5 | 6.85e5 | 1.51e6 | 1.03e6 | inactive |
| CG4829 | DRSC19920 | 1.71e5 | 1.46e5 | 9.86e5 | 6.47e5 | inactive |
| CG17107 | DRSC02575 | 4.21e5 | 4.10e5 | 2.99e6 | 2.76e6 | inactive |
| CG17107 | DRSC22627 | 9.52e5 | 6.14e5 | 1.41e6 | 1.06e6 | inactive |
| CG17107 | DRSC25263 | 6.94e5 | 6.95e5 | 8.83e5 | 7.30e5 | inactive |
| CG17027 | DRSC10238 | 94782 | 34290 | 1.51e6 | 7.10e5 | inactive |
| CG17027 | DRSC25560 | 8.82e5 | 7.92e5 | 7.91e5 | 7.89e5 | inactive |
| CG17027 | DRSC39264 | – | – | – | – | inactive |
| CG33627 | DRSC38875 | 1.20e6 | 8.42e5 | 2.61e6 | 1.91e6 | inactive |
| CG5071 | DRSC15710 | 2.45e5 | 2.96e5 | 3.18e6 | 2.62e6 | inactive |
| CG5071 | DRSC22570 | 5.63e5 | 5.80e5 | 1.27e6 | 1.45e6 | inactive |
| CG5071 | DRSC24514 | 4.35e5 | 8.36e5 | 6.02e5 | 8.39e5 | inactive |
| Nplp3 (Neuropeptide-like precursor 3) | DRSC25046 | 3.44e5 | 2.52e5 | 4.48e5 | 4.35e5 | inactive |
| Sbf (SET domain binding factor) | DRSC16852 | 40167 | 75115 | 2.24e5 | 5.06e5 | active |
| Sbf (SET domain binding factor) | DRSC27418 | 2.69e5 | 2.18e5 | 6.42e5 | 7.56e5 | inactive |
| Sbf (SET domain binding factor) | DRSC37037 | – | – | – | – | inactive |
| NimC2 (Nimrod C2) | DRSC01881 | 1.77e5 | 1.82e5 | 1.69e6 | 1.82e6 | inactive |

Continued, starting with the last 3 of the part before.
| gene | DRSC id | firefly reporter light, replicate 1 | firefly reporter light, replicate 2 | Renilla control light, replicate 1 | Renilla control light, replicate 2 | Outcome |
| --- | --- | --- | --- | --- | --- | --- |
| Sbf (SET domain binding factor) | DRSC27418 | 2.69e5 | 2.18e5 | 6.42e5 | 7.56e5 | inactive |
| Sbf (SET domain binding factor) | DRSC37037 | – | – | – | – | inactive |
| NimC2 (Nimrod C2) | DRSC01881 | 1.77e5 | 1.82e5 | 1.69e6 | 1.82e6 | inactive |
| PGRP-SD (Peptidoglycan recognition protein SD) | DRSC10856 | 88294 | 1.69e5 | 1.22e6 | 2.29e6 | inactive |
| CR41454 + CG33217 | DRSC38608 | 9.09e5 | 7.96e5 | 1.84e6 | 2.26e6 | inactive |
| CG6830 | DRSC16124 | 2.85e5 | 3.48e5 | 3.33e6 | 3.22e6 | inactive |
| CG6830 | DRSC27278 | 2.18e5 | 2.19e5 | 5.42e5 | 5.63e5 | inactive |
| CG34409 | DRSC14577 | 1.79e5 | 2.13e5 | 2.81e6 | 3.14e6 | inactive |
| CG34409 | DRSC21667 | 9.79e5 | 8.00e5 | 2.92e6 | 2.05e6 | inactive |
| CG17261 | DRSC00498 | 88882 | 1.06e5 | 7.15e5 | 8.32e5 | inactive |
| CG14323 | DRSC14802 | 87166 | 84738 | 1.82e6 | 1.95e6 | inactive |
| l(2)gl (lethal (2) giant larvae) | DRSC00825 | 4.10e5 | 5.07e5 | 2.37e6 | 4.46e6 | inactive |
| l(2)gl (lethal (2) giant larvae) | DRSC39145 | 4.77e5 | 3.78e5 | 2.09e6 | 1.14e6 | inactive |
| CG7646 | DRSC11232 | 2.80e5 | 2.54e5 | 2.30e6 | 3.17e6 | inactive |
| CG9328 | DRSC03203 | 6.96e5 | 1.01e6 | 1.50e6 | 2.11e6 | inactive |
| Hmt4-20 (Histone methyltransferase 4-20) | DRSC18482 | 35163 | 28033 | 65456 | 1.14e5 | inactive |
| Hmt4-20 (Histone methyltransferase 4-20) | DRSC23921 | 4.30e5 | 3.70e5 | 4.51e5 | 3.19e5 | inactive |
| CG9215 | DRSC20171 | 3.11e5 | 4.30e5 | 2.48e6 | 3.53e6 | inactive |
| CG17508 | DRSC07771 | 78421 | 1.36e5 | 7.23e5 | 1.08e6 | inactive |
| Cyfip (Cytoplasmic FMR1 interacting protein) | DRSC15679 | 1.76e5 | 2.02e5 | 6.65e5 | 5.51e5 | inactive |
| CG13590 | DRSC04226 | 4.29e5 | 8.95e5 | 1.28e6 | 2.07e6 | inactive |
| CG13590 | DRSC29790 | 5.76e5 | 2.83e5 | 1.83e6 | 1.42e6 | inactive |
| 128up (upstream of RpIII128) | DRSC05027 | 1.32e6 | 5.57e5 | 2.70e6 | 1.06e6 | inactive |
| 128up (upstream of RpIII128) | DRSC24366 | 9.85e5 | 6.67e5 | 8.52e5 | 9.92e5 | inactive |
| Oatp26F (Organic anion transporting polypeptide 26F) | DRSC02149 | 1.57e5 | 1.51e5 | 1.35e6 | 1.00e6 | inactive |
| Oatp26F (Organic anion transporting polypeptide 26F) | DRSC02272 | 2.62e5 | 3.44e5 | 1.78e6 | 1.80e6 | inactive |
| Oatp26F (Organic anion transporting polypeptide 26F) | DRSC02695 | 1.83e5 | 2.39e5 | 1.58e6 | 1.68e6 | inactive |
| Oatp26F (Organic anion transporting polypeptide 26F) | DRSC27346 | 2.79e5 | 2.49e5 | 5.54e5 | 6.25e5 | inactive |
